Test results published in US20100076072A1, “COMPOSITIONS AND METHODS OF VITAMIN E ADMINISTRATION” (NORTHWESTERN UNIVERSITY, priority 2008, published 2010).
At least one compound was matched to its structure with a doubt left.

How the values were obtained:
[1] = test system: experimental asthma; experiment: Eosinophilia in experimental asthma; conditions: in vivo
[2] = test system: VCAM-1; experiment: VCAM-1 dependent signaling in endothelial cells; type: cell-based

For `C=CC1=C(C)/C(=C/c2[nH]c(Cc3[nH]c(/C=C4\NC(=O)C(C)=C4C=C)c(C)c3CCC(=O)O)c(CCC(=O)O)c2C)NC1=O` [bilirubin], the “Eosinophilia in experimental asthma” value [1] was “inhibits eosinophilia” and the “VCAM-1 dependent signaling in endothelial cells” value [2] was “inhibits”.
